Primary screen of a compound library

The values are deposited in ChEMBL (CHEMBL3988442, “University of Dundee, Small-Polar-MMV Screening Library” (2021)).

Results are given as percent effect. The controls that fix the scale are not given in the record; negative values are as filed. The compounds are a random part of those screened.

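Assay of Toxoplasma gondii numbers, read through their beta-galactosidase reporter with a colour substrate. Tested at 10 µM. The record gives no direction; the compounds picked for IC50 retests had high values, so higher reads as fewer parasites. Size under these conditions: about 67,000 compounds, about 260 of them at 50% or above in at least one test.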

| structure | percent effect |
|---|---|
| `CC(=O)N1CCN(C(=O)CNc2cccc(OC(F)F)c2C)CC1` | -7.183 |
| `CCCNC(=O)CN1CCOC(CC)C1` (stereo not drawn) | 15.49 |
| `CCCN1CCC2(CC1)CN(C(=O)c1cccnc1)c1ccc(F)cc12.O=C(O)C(F)(F)F.O=C(O)C(F)(F)F` | -31.44 |
| `Cc1nc(CN2CCN(C(=O)NC(C)c3cccnc3)CC2)cs1` (stereo not drawn) | -19.38 |
| `Cc1nn(CC(O)CN2CCc3ccccc3C2)c(=O)c(C#N)c1C` (stereo not drawn) | 1.285 |
| `CCCNC(=O)N1CCN(Cc2cc(C)no2)CC1` | -6.591 |
| `CN(Cc1ccncc1)C1CC2(CCN(c3ncc(F)cn3)CC2)C1.O=C(O)C(F)(F)F.O=C(O)C(F)(F)F` | -1.82 |
| `Cn1cc(-c2nc(C(=O)N3CCCC3Cn3cccn3)cs2)cn1` (stereo not drawn) | 7.551 |
| `CC(C)NC(=O)N1CCC2(CC1)NC(=O)CC2c1ccncc1.O=C(O)C(F)(F)F` (stereo not drawn) | 13.8 |
| `CN(C)CCNC(=O)c1cc(-c2cnc(N(C)C)nc2)cn1CC1CC1` | 3.164 |
| `[H][C@@]12OCCN(C(=O)CC3=CCCCC3)[C@@]1([H])CC[C@@H]2OCC` | -6.846 |
| `Cc1ncc2c(n1)CN(Cc1nc3c(F)cccc3[nH]1)CC2` | 6.068 |
| `Cc1ccccc1N1CCN(C(=O)CSc2ccncc2)CC1=O` | -8.523 |
| `O=c1[nH]ncn1-c1cccc(C(F)(F)F)c1` | 11.3 |
| `CCS(=O)(=O)N1CCC(c2nnc(C3CC3)o2)CC1` | -7.546 |
| `CC(C)CCNC(=O)c1sccc1N(C)S(=O)(=O)c1ccccc1` | -0.4525 |
| `O=C(O)C(F)(F)F.[H][C@@]12CCN(C3CCC3)[C@]1([H])CC[C@H](C(=O)NCc1cccs1)O2` | -7.862 |
| `CC(C)OC(=O)CN1N=C(C(=O)N2CCCC2)S(=O)(=O)c2ccccc21` | -9.91 |
| `[H][C@@]12OCCN(S(=O)(=O)C3CC3)[C@@]1([H])CC[C@H]2OC` | 2.299 |
| `Cc1cnc(C(=O)N2CCCn3c(nc(CN(C)C)cc3=O)C2)cn1.O=C(O)C(F)(F)F` | -5.746 |
| `COc1ccccc1Nc1nc2c(s1)C(=O)CN(C(=O)CC(C)C)C2` | -5.262 |
| `Cc1cc(C(=O)N2CCc3[nH]nc(-c4ccc5c(c4)OCO5)c3C2)no1` | -5.494 |
| `COCCN1Cc2nccn2CC(COCc2csc(C)n2)C1.O=C(O)C(F)(F)F.O=C(O)C(F)(F)F` (stereo not drawn) | -0.3613 |
| `NCC1CN(Cc2cn(CCC(N)=O)c3ccccc23)CCO1` (stereo not drawn) | -6.285 |
| `O=c1c2cnc(N3CCCCC3)nc2ccn1-c1ccccc1` | 5.977 |
| `COCCn1cncc1Cn1cccc(C(F)(F)F)c1=O` | -0.1408 |
| `Cc1ocnc1C(=O)N1CCCN(Cc2cscn2)CC1` | -3.271 |
| `CC(C)NC(=O)c1nc2c(s1)CCCN2C(C)C` | -6.479 |
| `N[C@H]1CCCN(S(=O)(=O)c2ccc(C(=O)NCC(F)F)cc2)C1` | -2.588 |
| `CN1CCCCC12Cc1ccccc1CN(C(=O)C1CCCC1)C2` (stereo not drawn) | 5.8 |
| `CC1CCCCN1S(=O)(=O)NCCN/C(O)=C1/N=CC=CC1=O` (stereo not drawn) | 1.81 |
| `COC1CCN(C(=O)CC(C)(C)C)CC(=O)N(C)c2ccccc21` (stereo not drawn) | -28.3 |
| `O=C(O)C(F)(F)F.[H][C@@]12COC[C@]1([H])[C@@H](OCC(=O)N(C)C)CN2Cc1c(C)noc1C` | 1.484 |
| `CCn1cc(NC(=O)C2CCN(CC(=O)NC(C)(C)CC)CC2)cn1` | 0.9153 |
| `COc1cc(CSc2nnc(N)n2C2CC2)ccc1SC` | 10.64 |
| `O=C(O)C(F)(F)F.[H][C@]12CCC[C@@]1(COC)CN(C(=O)CN(C)C)C2` | -10.15 |
| `CC(=O)N1CC[C@H](c2nc3cc(C)ccc3o2)C1` | 7.263 |
| `O=C(c1ccoc1)N1CCc2ncnc(NCc3ccccn3)c2CC1` | -2.271 |
| `[H][C@@]12CO[C@@H](CNC(=O)c3ccco3)[C@]1([H])CCN(c1cccc(C)n1)C2` | 0.5879 |
| `CCC(=O)Nc1ccc(C(C)NC(=O)COC)cc1` (stereo not drawn) | -11.18 |
| `COc1cccc(CN2CCN(c3noc(C(C)C)n3)CC2)c1F` | 4.299 |
| `CCOc1ccc(Cl)c(C(=O)N2CCCC(c3ccn[nH]3)C2)n1` (stereo not drawn) | 2.509 |
| `CC(C)C(C)NC(=O)Nc1ccccc1CN1CCOCC1` (stereo not drawn) | 0.7974 |
| `Cc1ccc(NC2CCN(C(=O)COC3CCCC3)CC2)nn1` | -24.85 |
| `CNc1ccc(CC2CCCN(C(=O)c3cccc(C)n3)C2)nn1` (stereo not drawn) | 9.279 |
| `C[C@]1(O)CCN(Cc2nccs2)C[C@@H]1Oc1cccc(F)c1` | -9.739 |
| `COc1cccc(CN(C)C(=O)CN2CCN(c3nccn3C)CC2)c1` | -3.744 |
| `CNS(=O)(=O)Cc1ccc(CNC(=O)c2ccccn2)cc1` | -2.932 |
| `COc1ccc(NC(=O)CCc2c(C)nc3cc(O)nn3c2C)cn1` | 3.494 |
| `CCc1nc(C2CCCN(C(=O)CC3CCOCC3)C2)no1` (stereo not drawn) | -20.38 |
| `CC(=O)c1ccc(S(=O)(=O)NCC2CCN(c3cnccn3)CC2)cc1` | 13.95 |
| `Cc1cc(O)ncc1NS(=O)(=O)c1cccc(F)c1F` | -15.26 |
| `CC1c2ncc(Cn3cncn3)n2CCN1C(=O)[C@H]1CCCO1` (stereo partly drawn) | 12.83 |
| `Cn1c2ccc(F)cc2c2ncn(CCN3CCOCC3)c(=O)c21` | 9.343 |
| `CNS(=O)(=O)c1c(C)sc2ccccc12` | -15.51 |
| `CN(CC1(CO)CCCC1)c1nc2c(c(=O)[nH]1)Cc1ccccc1OC2` | -18.09 |
| `Cn1ccc(C(=O)N2CCCC(c3cc4cccnc4c(O)n3)C2)n1` (stereo not drawn) | 4.457 |
| `Cn1ncc2c1C(COCC1CC1)CN(CC1CC1)C2` (stereo not drawn) | 0 |
| `CNC(=O)C(C)CN(C)C(=O)Nc1cc(-n2cccc2)ccc1F` (stereo not drawn) | -12.49 |
| `COc1ccc2c(c1)CCN2Cc1nc2c(cnn2C)c(=O)[nH]1` | -4.116 |
| `COc1ccc2c(c1)CN(Cc1ccco1)C(=O)CCN2CC(C)(C)O` | 12.18 |
| `Nc1ccnc(N2CCCC(CCc3ccccc3)(C(=O)O)C2)n1` (stereo not drawn) | -8.05 |
| `CCC(=O)N1CCc2c(O)nc(C3CCCCN3C(=O)C3CC3)nc2C1` (stereo not drawn) | 18.55 |
| `Cn1ccnc1CN1CCCC(CCCc2ccccn2)(C(N)=O)C1` (stereo not drawn) | 4.718 |
| `COCc1nc(N2CC[C@H](N(C)C)C2)c2cnn(C)c2n1` | 8.33 |
| `Cc1cc(-c2nccs2)nc(C2CCN(Cc3cccs3)CC2)n1` | 5.078 |
| `CCN1CCC(CC(=O)NC[C@H]2CCc3ccccc3O2)CC1` | -0.2185 |
| `CC(=O)c1ccc(C(=O)NCc2cccnc2N2CCCC(O)C2)s1` (stereo not drawn) | -1.141 |
| `O=C(CN(Cc1ccccc1)CC1CCOCC1)Nc1nccs1` | 1.678 |
| `CCCn1cc(CN2CCC(c3[nH]ncc3S(C)(=O)=O)C2)cn1` (stereo not drawn) | -2.097 |
| `CC1CCC2(CC1)NC(=O)c1cc(Br)ccc1-n1nnnc12` (stereo not drawn) | 6.519 |
| `CCOCC(=O)N1CCc2c(ncnc2N2CCOCC2)C1` | 2.756 |
| `CCc1nc(C2CCCN(c3nccc(N4CCCC4)n3)C2)no1` (stereo not drawn) | -6.972 |
| `O=C1CSC(c2ccc(O)c(Cl)c2)c2c(n(C3CCOCC3)[nH]c2=O)N1` (stereo not drawn) | 8.846 |
| `CC[C@H]1CN(C(=O)c2ccc(-n3cnnc3)nc2)CC[C@@]1(C)O` | 1.756 |
| `O=C(O)C(F)(F)F.O=C(O)C(F)(F)F.c1ccc(OCc2n[nH]c3c2CN(Cc2cccs2)C3)nc1` | -15.51 |
| `CC(C)c1nnc2sc(CC3CCS(=O)(=O)CC3)nn12` | -5.934 |
| `[H][C@@]12C[C@@H](OCc3ccccc3)C[C@]1([H])CN(C(=O)C1CCOCC1)C2` | 1.412 |
| `O=C1NCC2(CCCN(Cc3ccc(Cl)s3)C2)Oc2ccccc21` (stereo not drawn) | -5.79 |
| `Cc1nn(C)c2c(=O)n(Cc3ccccc3)nnc12` | 61.89 |
| `CCc1nc(CCNC(=O)Nc2cc(C(N)=O)ccc2OC)cs1` | 8.721 |
| `Nc1cccnc1N1CCN(c2ccccc2)CC1` | -11.21 |
| `CN(C)CCCn1ccnc1C1CCN(C(=O)Cc2cccnc2)CC1` | 2.76 |
| `Cc1ccc(C(=O)N2CCOc3nc(C)ccc32)c(F)c1` | 4.302 |
| `COCCC(=O)N1CC2(CCN(Cc3ccoc3)C2)C1` | -2.274 |
| `CC(C)Cc1ncc2c(n1)CN(c1nccc(NC(C)C)n1)C2` | 29.58 |
| `c1cc(C2CCN(c3cncnc3)CC2)ccn1` | 8.474 |
| `CN(Cc1nnc(C2CC2)n1C)C1CCN(Cc2ccncc2)C1` (stereo not drawn) | -3.007 |
| `O=C(Nc1cccc(OCc2cccc(F)c2)c1)C1COCCO1` (stereo not drawn) | -1.542 |
| `CN(C)CC(=O)N1CCC2(CC1)CN(Cc1ccccc1)C2` | 11.58 |